# Out of some 320,000 compounds screened, about 2,100 (0.66%) were called active. The inconclusive results got no clear call from the source; some entries with a clear call stand among them for comparison. Calls follow the shape of the dose curve; as a rule, active = well fitted inhibition curve with a large enough effect in the signal ratio, with a control signal flat (not every such curve was filed as active); inconclusive = small, poorly fitted or top-dose-only effect, or effect the other way, or a change in a side signal; inactive = flat fitted curve, though single readings scatter; the % refers to the signal ratio. Potencies of inconclusive entries are doubtful fits and often do not repeat.
# Experiment: qHTS Assay for Lipid Storage Modulators in Drosophila S3 Cells
# Details: BODIPY lipid droplet fluorescence, 18-24 h, cells fed with added oleic acid; lipid storage change, negative = inhibition: at 46.1 µM (top of the series) unless noted
# Procedure, shortened: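 Drosophila S3 cells loaded with oleic acid (400 uM, as added) and compounds at several concentrations; lipid droplets imaged by 488-nm laser-scanning cytometry, 500–530 nm intensity and object ratio to cell channel. Percent activity normalized to 20 uM Triacsin C.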
# % is scaled to controls: 0 for no effect and ±100 for the full control effect; potency is read from the fitted curve at half-maximal effect.
SMILES,"lipid storage change, negative = inhibition",Potency
CCCCC1=CC2=C(c3ccco3)C(=O)C(C)(OC(=O)c3ccc(OC)cc3)C(=O)C2=CN1Cc1ccccc1 (stereo unspecified),inconclusive: 43.5%,
Cc1ccc(S(=O)(=O)N2CCOCC2)cc1C(=O)NC1CCCC1,,"inconclusive: 0.103 µM [activator, full curve, poor fit]"
O=C(Nc1ccc(F)cc1)N(CCCN1CCOCC1)Cc1cc2cc3c(cc2[nH]c1=O)OCCO3,,"inconclusive: 0.0058 µM [activator, full curve, poor fit]"
CC12CCC(C(=O)NCc3ccco3)(OC1=O)C2(C)C (stereo unspecified),inconclusive: -11.9%,
O=C(CN1C(=O)C2C3C=CC(C3)C2C1=O)Nc1ccc(F)cc1 (stereo unspecified),inconclusive: -30.7%,
CCOC(=O)C1CCCCN1Cc1ccc(-c2ccccc2)cc1 (stereo unspecified),,"inconclusive: 29.1 µM [activator, single point]"
CC(=O)c1cccc(NC(=O)c2ccc3c(c2)OCO3)c1,,"inconclusive: 5.8 µM [falling, partial curve, poor fit]"
O=[N+]([O-])c1cc2c(cc1/C=N/n1c(-c3ccccc3)n[nH]c1=S)OCO2,inconclusive: 21.6%,
O=C(O)C1CCCN1C(=O)C1CCN(S(=O)(=O)c2cccc(C(F)(F)F)c2)CC1 (stereo unspecified),inconclusive: -1.94%,
COc1ccc(C(=O)N(CCN2CCOCC2)CC(=O)NC2CCCC2)cc1OC,,"inconclusive: 29.1 µM [cytotoxic, single point]"
CN(CC(=O)NNC(=O)Cc1ccccc1F)S(=O)(=O)c1ccc(Cl)cc1,inconclusive: -100%,
C/C(=N\NC(=O)c1ccncc1)c1ccc(N(C)C)cc1,inconclusive: 10.5%,
COc1ccc(CC(=O)NCC2CCCN(Cc3cccc(C(F)(F)F)c3)C2)cc1 (stereo unspecified),inconclusive: 206%,
O=C(NC1CCN(S(=O)(=O)c2cccc(F)c2)CC1)c1ccc(F)cc1,inconclusive: -1.38%,
COc1ccccc1C(=O)NCCC(=O)NCC(c1ccccc1OC)N1CCCC1 (stereo unspecified),inconclusive,
C=CCc1cc(C=O)cc(OC)c1OCc1ccc(C(=O)O)cc1,inconclusive: 26.6%,
Cc1ccccc1NC(=O)c1oc(=O)c2ccccc2c1-c1ccccc1,inconclusive: 20.3%,
COc1ccc(CCNS(=O)(=O)c2ccc3c(c2)n(C)c(=O)c(=O)n3C)cc1OC,inconclusive: 3.29%,
CN(C)S(=O)(=O)c1cccc(NC(=O)COC(=O)CCSc2ccc(Cl)cc2)c1,inconclusive: 19.3%,
CN(C)S(=O)(=O)c1ccc(Cl)c(NC(=O)COC(=O)CN2C(=O)C3CCCCC3C2=O)c1 (stereo unspecified),inconclusive: 69.3%,
CCN1CCN(C(=O)c2cc(-c3ccc(Cl)s3)nc3ccccc23)CC1,inconclusive: -11.7%,
COc1ccccc1C(=O)C1CCCN(Cc2ccc3c(c2)OCCO3)C1 (stereo unspecified),,"inconclusive: 0.411 µM [falling, full curve, poor fit]"
O=C(Nc1ccc2ccccc2n1)Nc1cccs1,inconclusive: 13%,
COc1cccc(-n2nnnc2SCC(=O)Nc2ccccc2OC)c1,inconclusive: 32.1%,
CS(=O)(=O)N1CCN(C(=O)Cc2ccccc2)CC1,,"inconclusive: 29.1 µM [activator, single point]"
Cc1ccc2nsnc2c1S(=O)(=O)N(Cc1ccco1)Cc1cc2cccc(C)c2[nH]c1=O,inconclusive: 12.5%,

SMILES,"lipid storage change, negative = inhibition",Potency
O=C(c1[nH]ncc1-c1ccccc1)C1CO1 (stereo unspecified),,"inconclusive: 4.11 µM [falling, single point]"
Cc1ccc(NC(=O)COc2ncnc3ccccc23)cc1S(=O)(=O)N1CCOCC1,inconclusive: 7.79%,
O=C(OCc1nnc(-c2ccccc2)o1)c1ccccc1,inconclusive: 43.1%,
On1c(-c2ccccc2Cl)nc2ccccc21,inconclusive: 5.87%,
COc1ccc2nc(/N=C/c3cccc(OC)c3O)sc2c1,inconclusive: -155%,
O=S(Cc1ccc(Cl)cc1)CC(O)COc1ccc(Cl)cc1 (stereo unspecified),inconclusive: -24.7%,
Cc1cnc(NC(=O)CCNC(=O)c2ccccc2Cl)s1,inactive: -19.1%,
N#CCC(=O)N/N=C/c1c2ccccc2cc2ccccc12,inconclusive: 163%,
CCOc1ccccc1NC(=O)CN1C(=O)COc2ccc(S(=O)(=O)N3CCOCC3)cc21,inconclusive: 2.49%,
O=C(O)CCc1ccc(-c2ccc(Cl)cc2)n1CCC(=O)O,inconclusive: 6.11%,
Cc1ccc2[nH]c(C(=O)N/N=C/c3ccccc3C(=O)O)c(-c3ccccc3)c2c1,inconclusive: -15.3%,
Cc1ccc(-n2c(SCC(=O)N/N=C/C=C/c3ccccc3[N+](=O)[O-])nc3ccccc3c2=O)cc1,,"inconclusive: 0.82 µM [rising, full curve, poor fit]"
O=C(Nc1nnc(C2CC2)o1)c1ccc(S(=O)(=O)N2CCCc3ccccc32)cc1,inconclusive: 12.3% [at 9.22 µM],
CCOC(=O)C1=NN(C(=O)Cc2ccccc2)C(O)(C(C)(C)C)C1 (stereo unspecified),inconclusive: 14.3%,
COc1nc(C#N)nc(N(C)C)n1,inactive: -8.69%,
Cc1cc(C(=O)COc2cccnc2[N+](=O)[O-])c(C)n1-c1ccccc1F,,"inconclusive: 29.1 µM [falling, single point]"
Clc1ccc(-c2nnc(N3CCOCC3)o2)cc1,inactive: 4.05%,
O=C(c1cccc(NC2=NC3CS(=O)(=O)CC3S2)c1)N1CCN(c2cccc(Cl)c2)CC1 (stereo unspecified),inconclusive: 31.9%,
Cc1noc(COc2ccccc2OCC(N)=O)c1Cl,,"inconclusive: 25.9 µM [activator, single point]"
Cc1cc(NC(=O)CCSc2ccccc2)no1,inconclusive: -11.9%,
CSc1nsc(SC)c1C(=O)O,inconclusive: -65.3%,
Cn1ncc([N+](=O)[O-])c1C(=O)Nc1ccccc1Cl,inconclusive: 32.5%,
CSc1ccc(C(=O)C2CCCN(C(=O)c3cc4cc(F)ccc4[nH]3)C2)cc1 (stereo unspecified),inactive: 10.5%,
COc1ccccc1N(C(=O)NCc1ccccc1)C1=NCC(C)S1 (stereo unspecified),,"inconclusive: 2.06 µM [activator, partial curve]"
O=C(Nc1ccccc1Br)c1cc[n+]([O-])cc1,inconclusive: 39.8%,

# Copied from the list:
# lipid storage change, negative = inhibition, CCOc1ccccc1NC(=O)CN1C(=O)COc2ccc(S(=O)(=O)N3CCOCC3)cc21 is entered as inconclusive: 2.49%
# lipid storage change, negative = inhibition, O=C(Nc1ccccc1Br)c1cc[n+]([O-])cc1 is entered as inconclusive: 39.8%

# Source: PubChem BioAssay AID2685 (National Center for Advancing Translational Sciences (NCATS), 2010)
